# PMC10163288
# This is one part of the list.
# B1: il10ra_site1_sap_21_mot_HHH_b1_03859_af2_000000004_0001_44_57_H_._HHH_b1_03368_af2_0001_0000300008_0000001_0_0001_1 (protein)
# chain: SSSSTDEVYERLEELIKEAHEAYRNNDEELLRELAEEIEELAEKFNNWAVRAVAEVVKKLGSSSS
# B2: il10ra_site1_sap_21_mot_HHH_b2_00033_000000036_0001_41_54_H_._HHH_b1_05655_0001_0000600039_0000002_0_0001 (protein)
# chain: SSSSDENEEALKLAREAVEAALRGNPEEAQELLEEAEELARKGGNERLVRMIERLLETLKSSSSS
# B3: il10ra_site1_sap_18_mot_HHH_b1_03531_000000273_0001_41_54_H_._HHH_b2_02783_0001_0000200007_0000002_0_0001 (protein)
# chain: SSSSSKEEEQLRLSLEFAKWLLEEGDPEAARRIAEAALDIARRLGDEELEEEIEELLREIGSSSS
# B4: il10ra_site1_sap_21_mot_HHH_b1_02997_000000220_0001_39_52_H_._HHH_b2_04414_0001_0000100006_0000002_0_0001 (protein)
# chain: SSSSQEAAELVLRAFRLALRGNLEEAREIAEEALEIAEEEGNEQARETIETFLRTLKARLDSSSS
# B5: il10ra_site1_normal_mot_HHH_b2_06979_000000158_0001_42_57_H_._HHH_b2_00250_0001_0000400013_0000001_1 (protein)
# chain: SSSSTEAQELYELVRRLVEALAEGDEELVRELARELEELAEELNNELFLINARFILEDVESSSSS
# B6: il10ra_site1_normal_mot_8756ee2cf497b5429c717dfc0c0bcfd6_0001_000000186_0001_1_13_H_._HHH_b1_07180_0001_0000300021_0000001_0_af2pred_0001 (protein)
# chain: SSSSDLIERLFELLKRIAELHSEGNEEEARELIEEAQEVAEEAGNEVARAILEFLEKNLNSSSSS
# B7: il10ra_site1_sap_19_mot_a6c796b944619e241e020fd597ddb6da_0001_af2_000000092_0001_15_31_H_._HHH_b2_00760_af2_0001_0000300007_0000001_1_0001 (protein)
# chain: SSSSSDEEIEERVEELLEEAEKIDDPDEAYKALKEAIELAAELNDPRLFRLIMEVLHRWISSSSS
# B8: il10ra_site1_sap_19_mot_HHH_b2_06602_000000226_0001_1_16_H_._HHH_b1_03685_af2_0001_0000100006_0000001_0_0001 (protein)
# chain: SSSSHLAEVAFRLAEESLRWAAEENDPEALKRSLEAFSLALEELGNPELVERLEELYEELSSSSS
# B9: il10ra_site1_sap_8_mot_HHH_b1_06786_000000000_0001_1_20_H_._HHH_b1_05947_0001_0000200009_0000001_1_0001 (protein)
# chain: SSSSDREERIQELLERAEELAEEGDPREAARLLQEAIHLAFELGDWELLHEIWRVLRKVASSSSS
# B10: il10ra_site1_sap_28_mot_0eddeacbb14b769e73e254714f31e2f9_0001_af2_000000203_0001_37_51_H_._ems_3hM_77_0001_0000100001_0000002_1_0001 (protein)
# chain: SSSSDVEERIEELLEEIERLLEEGNPEEAYKLLREVAEIAHENNDEEASQRVLELSRLASSSSSS
# B11: il10ra_site1_sap_26_mot_HHH_b2_03328_af2_000000127_0001_1_19_H_._HHH_b2_02567_0001_0000300027_0000001_0_0001 (protein)
# chain: SSSSSAEEELEELLEELEQLLREGDRERFLEVLQRALQLAYQASDEEVLRRLWELLEELDSSSSS
# B12: il10ra_site1_sap_19_mot_HHH_b1_03314_af2_000000278_0001_42_55_H_._HHH_b1_02703_af2_0001_0000600018_0000001_0_0001 (protein)
# chain: SSSSDAEEKVKLTLRFIRWLLEEGDKRAARHFARVALELAERIGDPELEREVEELLELAENSSSS
# B13: il10ra_site1_normal_mot_HHH_b1_05056_000000217_0001_1_20_H_._876462e7a17a420be942191b58edf4ab_0001_1_0001_0000600019_0000001_0 (protein)
# chain: TELQEILRLVFELGDPDILQALWKLVKRLAKGDPEAEELLKEILELLREGNREEVHELAKEILEK
# B14: il10ra_site1_sap_25_mot_HHH_b1_03900_000000129_0001_1_16_H_._HHH_b1_05904_0001_0000500045_0000002_0_0001_af2pred_0001 (protein)
# chain: SSSSAERAAEIAVRAAEWAIEAGDPEIAEQALRALKFLAEELNDPELRELVEELEQLLRELSSSS
# B15: il10ra_site1_normal_mot_HHH_b1_06914_000000280_0001_1_18_H_._HHH_b1_06660_0001_0000200027_0000001_0 (protein)
# chain: SSSSTHEVYELSRRAAELIANGNLEEAEEVLREAEELARQNNNEVLLFNIRLLLRQIEQLLSSSS
# B16: il10ra_site1_sap_21_mot_HHH_b1_01592_af2_000000239_0001_40_54_H_._HHH_b2_03255_af2_0001_0001100028_0000001_0_0001 (protein)
# chain: SSSSDEQEAIRLLHELMEAYKKGDEELIEELVEELEELARKLNSASARLLVRFAKELLEELSSSS
# B17: il10ra_site1_sap_16_mot_HHH_b1_08411_af2_000000053_0001_1_20_H_._HHH_b2_04044_0001_0000200014_0000001_1_0001 (protein)
# chain: SSSSDEEELEKLQEEIERLIEEGDPERAAKLLQELLRIAFQLSDEEIMRLIMELAELIRNASSSS
# B18: il10ra_site1_sap_23_mot_2c1a291787c6f40772924d4e9068d803_0001_af2_000000187_0001_34_48_H_._HHH_b2_07452_0001_0000300038_0000001_0_0001_af2pred_0001 (protein)
# chain: SSSSDDKELAELALRMVKWLEKAGDEEALKRLLEAAAQIAELANDEEILKELQEILEELESSSSS
# B19: il10ra_site1_sap_23_mot_HHH_b2_07144_000000289_0001_1_18_H_._HHH_b1_01684_0001_0000400046_0000001_0_0001_af2pred_0001 (protein)
# chain: SSSSDAEEFVRLTLRFVKFLLEQGDKEAAKRFLEAAKRLVKLEGNEELEEKLEELEEEVNSSSSS
# Biological target: il10ra, Q13651
# Assay: yeast display titration
row,Binder,apparent Kd
1,B1,inactive: no binding seen
2,B2,inactive: no binding seen
3,B3,inactive: no binding seen
4,B4,inactive: no binding seen
5,B5,inactive: no binding seen
6,B6,inactive: no binding seen
7,B7,inactive: no binding seen
8,B8,inactive: no binding seen
9,B9,inactive: no binding seen
10,B10,inactive: no binding seen
11,B11,inactive: no binding seen
12,B12,inactive: no binding seen
13,B13,inactive: no binding seen
14,B14,inactive: no binding seen
15,B15,inactive: no binding seen
16,B16,inactive: no binding seen
17,B17,inactive: no binding seen
18,B18,inactive: no binding seen
19,B19,inactive: no binding seen

# Two successive entries already listed:
row,Binder,apparent Kd
9,B9,inactive: no binding seen
10,B10,inactive: no binding seen
